Data published in patent US8735129B2, “Ginsenoside glycosidase derived from the genus Terrabacter, and use thereof” (Korea Research Institute of Bioscience and Biotechnology, priority 2009, dated 2014).

Assay type: biochemical
Details: sodium phosphate buffer
Description: The thermo-dependence of the activity was assayed in 50 mM potassium phosphate buffer at various temperatures ranging from 4 to 90° C. Thermostability was tested by incubating aliquots of the enzyme in 50 mM potassium phosphate buffer for 30 minutes at different temperatures. After cooling the sample on ice for 10 minutes, residual activity was determined by a standard analysis;
The pH effect on the enzymatic activity was measured using 2.0 mM pNPGlc in the following buffer (50 mM):
Buffer: pH range of 2 to 10: KCl—HCl (pH 2), glycine-HCl (pH 3), sodium acetic acid (pH 4 and 5), sodium phosphate (pH 6 and 7), Tris-HCl (pH 8 and 9) and glycine-sodium hydroxide (pH 10).
The enzyme was incubated in each of the above mentioned buffers at 4° C. for 24 hours, and then pHPGlc was analyzed in 50 mM potassium buffer to measure the enzymatic stability according to pH change. The activity was measured by the above mentioned method.
The results were represented as an activity probability obtained at the optimum pH.
The temperature-dependent activity in the 50 mM potassium phosphate buffer was analyzed within the temperature range of 4-90° C. using 2.0 mM pNPGlc at the optimum pH for 5 minutes. […] The sample was cooled in ice for 10 minutes, and the residual activity was measured by pNPGlc analysis.

B1: Bgl-gyp17: recombinant ginsenoside glycosidase from Terrabacter Gsoil 3082, SEQ ID NO. 1, 589 residues (protein, listed as Terrebacter sp.)
chain: MDPYEDPRLPVEVRVEDLLGRLSLEEKVGLMFQTVIEAGSDGTVLEHPGSISKSPTSTVVLDKHLTHFNVHALDDPRMAARWSNALQALAERTPHGIPVTVSTDPRHAFIENVGVSFSAGAFSQWPEPLGLAALRDADAVRRFADIARQEYVAVGIRAALHPTLDLATEPRWARQAGTFGQDPDLVTELGVAYLKGFQGDSLGSGSVACTSKHFPGGGPQKDGEDAHFPYGREQVYPGGRFADHLKPFPPIIEAGTAGIMPYYGMPVDLVVDGVEIEPIGFGYNKQVVTGLLREKLGYDGVVVTDWELVNDNHVGDQVLPARAWGVEHLDPHGRMELILEAGADQFGGEECVEILLDLVAQGRVTEARVDESARRILAVKFRLGLFENPYVDEDEAAATVGRDDFREEGYAAQARSVTVLHHEGGRLPLEHGLRIYAEQVSPEAVARHGKLVDRPEDADVAVVRLTAPFDPRSDLFLESWFHQGSLDFPPGLVARLERIAAVCPLVVDVVLDRPAVLTPLLRFASAVVGSFGSCDDALLDALTGTIAPVGRLPFDLPRSMDQVRAHGEDVPGYDDPLFPFGHGLRLDTE
modifications: PEPTIDE (1)..(589) amino acid sequence of Bgl-gyp17
notes: 1, 589 residues
- pH of maximum activity: 7.0
